Some entries share one result that the patent states for a list of compounds.
How the values were obtained:
[1] = tested on: peripheral-type benzodiazepine receptor (PBR); assay: PBR ligand binding capacity of treated MDA-231 cells ([3H]PK 11195 saturation binding, Scatchard analysis); format: cell-based, human
Excerpt: Cell Culture and Treatments. […] Radioligand Binding Assays. […] RNA (Northern) Analysis. […] Nucleic Acid Arrays. […] BrdU Cell Proliferation Assays. […] Analysis of oxidative stress. […] Biological Evaluation In Vivo. […] Immunocytochemistry of MDA-231 tumors. […] Statistical Analysis. […] (FIG. 5).

MDA-231 cells = assay: BrdU cell proliferation assay, MDA-231

## C[C@@H]1C(=O)O[C@H]2[C@H](O)C34[C@H]5C[C@@H](C(C)(C)C)C36C(O)C(=O)O[C@H]6O[C@@]4(C(=O)O5)[C@@]12O (some centres unmarked) [GKB, ginkgolide B]
[1]
  PBR levels remaining at high concentrations: ≥ 30 % of normal values
MDA-231 cells
  rates of cell proliferation remaining at high concentrations: ≥ 30 % of normal values

— patent US7078434B1, “Use of Ginkgo extract” (Societe de Conseils de Recherches et d'Applications …, priority 1999, dated 2006)
